At least one structure is not confirmed: it was looked up by name or label, or the drawing left a doubt.
Test: Storage stability of the solid at 40°C, residual activity by HPLC
Format: physicochemical
Details: solid in glass bottle

| SMILES | Percent residual activity (after 1 day, listed as Amorphous compound (14) of Example 10) [%] | Percent residual activity (after 2 days, listed as Amorphous compound (14) of Example 10) [%] | Percent residual activity (after 5 days, listed as Amorphous compound (14) of Example 10) [%] | Percent residual activity (after 10 days, listed as Amorphous compound (14) of Example 10) [%] | Percent residual activity (first day (taken as 100%)) [%] | Percent residual activity (after 1 day, listed as Crystalline compound (20) of Example 11) [%] | Percent residual activity (after 1 day, listed as Crystalline compound (20) of Example 12) [%] | Percent residual activity (after 2 days, listed as Crystalline compound (20) of Example 11) [%] | Percent residual activity (after 2 days, listed as Crystalline compound (20) of Example 12) [%] | Percent residual activity (after 5 days, listed as Crystalline compound (20) of Example 11) [%] | Percent residual activity (after 5 days, listed as Crystalline compound (20) of Example 12) [%] | Percent residual activity (after 10 days, listed as Crystalline compound (20) of Example 11) [%] | Percent residual activity (after 10 days, listed as Crystalline compound (20) of Example 12) [%] |
| --- | --- | --- | --- | --- | --- | --- | --- | --- | --- | --- | --- | --- | --- |
| C[C@@H](O)[C@H]1C(=O)N2C(C(=O)[O-])=C(SCc3cs[n+](C)n3)[C@H](C)[C@H]12 [Amorphous Compd. (14), (1R,5S,6S)-2-[(2-methyl-1,2,3-thiadiazolium-4-yl)methyl]thio-6-[(R)-1-hydroxyethyl]-1-methyl-carbapenem-3-carboxylate] | 90 | 80 | 45 | 35 | 100 |  |  |  |  |  |  |  |  |
| C[C@@H](O)[C@H]1C(=O)N2C(C(=O)[O-])=C(SCc3cs[n+](C)n3)[C@H](C)[C@H]12 [Crystalline Compd. (20), (1R,5S,6S)-2-[(2-methyl-1,2,3-thiadiazolium-4-yl)methyl]thio-6-[(R)-1-hydroxyethyl]-1-methyl-carbapenem-3-carboxylate] |  |  |  |  | 100 | 100 | 100 | 100 | 100 | 100 | 100 | 100 | 100 |

From patent EP0326640B1, “(1R,5S,6S)-2-substituted thio-6 (R)-1-hydroxyethyl -1-methyl-carbapenem - carboxylic acid derivatives” (LEDERLE (JAPAN) LTD., priority 1987, dated 1989)
